Results are given in words; binding and its absence hold for the method and conditions named.
How the values were obtained:
Experiment in all cases: two-hybrid; array-based Y2H matrix; preys in pACT2 (PJ69-4a) mated against 23 baits in pAS2-1 (PJ69-4α); growth on SD-Leu-Trp-His + 6 mM 3-AT greater than the negative control after 2 weeks
[1] = molecular target: T1, Cgr1 (Y2H bait, pAS2-1) (S. cerevisiae) (UniProt P53188)
T1 sequence: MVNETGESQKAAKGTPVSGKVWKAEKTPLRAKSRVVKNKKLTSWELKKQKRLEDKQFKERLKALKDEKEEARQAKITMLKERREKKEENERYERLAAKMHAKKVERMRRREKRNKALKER

[2] = molecular target: T2, Cic1 (Y2H bait, pAS2-1) (S. cerevisiae) (UniProt P38779)
T2 sequence: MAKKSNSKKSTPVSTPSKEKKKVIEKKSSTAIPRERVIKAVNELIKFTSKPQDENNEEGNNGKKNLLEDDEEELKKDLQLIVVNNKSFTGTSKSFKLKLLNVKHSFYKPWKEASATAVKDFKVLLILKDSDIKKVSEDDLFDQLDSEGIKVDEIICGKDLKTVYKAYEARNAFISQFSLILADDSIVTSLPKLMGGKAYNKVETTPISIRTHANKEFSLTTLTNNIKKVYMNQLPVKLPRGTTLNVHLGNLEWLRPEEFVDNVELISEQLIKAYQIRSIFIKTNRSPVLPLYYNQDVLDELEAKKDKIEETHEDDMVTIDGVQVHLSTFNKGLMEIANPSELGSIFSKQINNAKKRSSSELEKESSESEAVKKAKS

[3] = molecular target: T3, Ebp2 (Y2H bait, pAS2-1) (S. cerevisiae) (UniProt P36049)
T3 sequence: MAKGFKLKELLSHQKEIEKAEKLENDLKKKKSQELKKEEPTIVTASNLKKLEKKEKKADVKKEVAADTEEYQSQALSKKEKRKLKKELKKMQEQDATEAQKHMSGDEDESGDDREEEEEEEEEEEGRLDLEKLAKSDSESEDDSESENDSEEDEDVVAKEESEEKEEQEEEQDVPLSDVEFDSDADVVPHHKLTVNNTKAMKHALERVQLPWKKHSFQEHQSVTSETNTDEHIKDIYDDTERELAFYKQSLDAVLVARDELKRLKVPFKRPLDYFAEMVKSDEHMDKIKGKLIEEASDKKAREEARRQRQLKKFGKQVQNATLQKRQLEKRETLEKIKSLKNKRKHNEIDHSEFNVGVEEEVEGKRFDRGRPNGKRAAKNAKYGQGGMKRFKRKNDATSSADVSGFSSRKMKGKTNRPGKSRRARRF

[4] = molecular target: T4, Mak5 (Y2H bait, pAS2-1) (S. cerevisiae) (UniProt P38112)
T4 sequence: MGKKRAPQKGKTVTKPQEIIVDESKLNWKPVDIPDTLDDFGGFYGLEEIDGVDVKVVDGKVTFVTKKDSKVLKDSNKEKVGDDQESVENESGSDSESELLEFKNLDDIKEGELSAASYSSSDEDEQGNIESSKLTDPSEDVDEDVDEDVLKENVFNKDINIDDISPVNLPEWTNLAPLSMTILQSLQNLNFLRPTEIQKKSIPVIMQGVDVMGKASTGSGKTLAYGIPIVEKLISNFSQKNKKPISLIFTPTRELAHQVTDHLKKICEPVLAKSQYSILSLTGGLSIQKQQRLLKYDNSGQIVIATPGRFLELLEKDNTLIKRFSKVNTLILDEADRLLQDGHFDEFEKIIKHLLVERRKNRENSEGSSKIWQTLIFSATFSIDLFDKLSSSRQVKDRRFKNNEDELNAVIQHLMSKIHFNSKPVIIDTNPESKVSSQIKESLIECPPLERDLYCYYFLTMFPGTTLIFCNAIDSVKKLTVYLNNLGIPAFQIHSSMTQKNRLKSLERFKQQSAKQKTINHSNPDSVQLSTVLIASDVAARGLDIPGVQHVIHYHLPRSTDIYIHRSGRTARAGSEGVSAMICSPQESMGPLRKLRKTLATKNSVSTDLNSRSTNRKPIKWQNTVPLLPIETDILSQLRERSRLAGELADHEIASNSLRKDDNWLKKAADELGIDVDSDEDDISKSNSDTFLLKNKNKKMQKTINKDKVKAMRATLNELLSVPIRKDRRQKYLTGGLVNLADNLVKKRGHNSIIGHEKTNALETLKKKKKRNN

[5] = molecular target: T5, Nug1 (Y2H bait, pAS2-1) (S. cerevisiae) (UniProt P40010)
T5 sequence: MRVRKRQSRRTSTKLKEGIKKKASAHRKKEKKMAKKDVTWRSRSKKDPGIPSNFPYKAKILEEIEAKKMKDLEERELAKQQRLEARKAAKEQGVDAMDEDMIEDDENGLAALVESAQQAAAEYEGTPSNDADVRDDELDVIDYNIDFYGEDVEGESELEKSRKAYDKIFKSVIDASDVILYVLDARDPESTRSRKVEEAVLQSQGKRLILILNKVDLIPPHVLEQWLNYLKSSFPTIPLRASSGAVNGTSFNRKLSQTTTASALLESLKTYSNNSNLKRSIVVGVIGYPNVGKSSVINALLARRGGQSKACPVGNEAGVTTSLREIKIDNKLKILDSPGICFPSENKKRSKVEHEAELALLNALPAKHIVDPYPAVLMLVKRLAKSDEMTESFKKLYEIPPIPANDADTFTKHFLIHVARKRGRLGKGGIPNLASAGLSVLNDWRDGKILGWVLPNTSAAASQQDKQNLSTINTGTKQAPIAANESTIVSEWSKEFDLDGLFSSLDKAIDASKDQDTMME

Measured: binding

B1: Nop4 RRM 1–2 (Y2H prey, pACT2) (domain or fragment, UniProt P37838 1-250)
chain: MEETIENVEVPSSNVSKQNDDGLDMKTLFVRSIPQDVTDEQLADFFSNFAPIKHAVVVKDTNKRSRGFGFVSFAVEDDTKEALAKARKTKFNGHILRVDIAKRRDRSKKTSEVVEKSTPESSEKITGQNNEDEDDADGEDSMLKGKPKLIIRNMPWSCRDPVKLKKIFGRYGTVVEATIPRKRDGKLCGFAFVTMKKISNCRIALENTKDLKIDGRKVAVDFAVQKNRWEDYKKAQPEMNDKDDNESGNE
no binding: all assays above

From article PMC4859800
